Experimental findings from doi:10.1101/2023.11.28.568985 are described below.

Chains of the proteins cited; added tags and fusions are not shown.
UniProt O43823: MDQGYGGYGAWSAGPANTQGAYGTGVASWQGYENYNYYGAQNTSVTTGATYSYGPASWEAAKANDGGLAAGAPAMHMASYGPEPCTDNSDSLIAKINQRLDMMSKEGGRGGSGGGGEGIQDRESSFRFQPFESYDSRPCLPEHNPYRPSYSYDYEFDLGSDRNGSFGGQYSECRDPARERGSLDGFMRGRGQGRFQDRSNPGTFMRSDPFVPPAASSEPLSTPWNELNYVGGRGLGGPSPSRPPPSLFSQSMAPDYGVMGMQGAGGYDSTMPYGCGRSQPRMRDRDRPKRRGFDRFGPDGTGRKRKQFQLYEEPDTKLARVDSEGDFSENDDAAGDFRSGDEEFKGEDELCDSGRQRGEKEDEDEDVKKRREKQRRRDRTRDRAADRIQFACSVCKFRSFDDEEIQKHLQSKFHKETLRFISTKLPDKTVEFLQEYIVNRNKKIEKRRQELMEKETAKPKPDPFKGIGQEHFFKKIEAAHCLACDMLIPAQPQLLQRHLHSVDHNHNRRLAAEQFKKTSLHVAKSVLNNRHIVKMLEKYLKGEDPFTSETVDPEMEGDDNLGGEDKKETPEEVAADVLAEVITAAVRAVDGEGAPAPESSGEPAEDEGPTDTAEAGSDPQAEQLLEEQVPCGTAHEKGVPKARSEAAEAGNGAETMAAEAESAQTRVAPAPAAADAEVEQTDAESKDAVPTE
UniProt P17844: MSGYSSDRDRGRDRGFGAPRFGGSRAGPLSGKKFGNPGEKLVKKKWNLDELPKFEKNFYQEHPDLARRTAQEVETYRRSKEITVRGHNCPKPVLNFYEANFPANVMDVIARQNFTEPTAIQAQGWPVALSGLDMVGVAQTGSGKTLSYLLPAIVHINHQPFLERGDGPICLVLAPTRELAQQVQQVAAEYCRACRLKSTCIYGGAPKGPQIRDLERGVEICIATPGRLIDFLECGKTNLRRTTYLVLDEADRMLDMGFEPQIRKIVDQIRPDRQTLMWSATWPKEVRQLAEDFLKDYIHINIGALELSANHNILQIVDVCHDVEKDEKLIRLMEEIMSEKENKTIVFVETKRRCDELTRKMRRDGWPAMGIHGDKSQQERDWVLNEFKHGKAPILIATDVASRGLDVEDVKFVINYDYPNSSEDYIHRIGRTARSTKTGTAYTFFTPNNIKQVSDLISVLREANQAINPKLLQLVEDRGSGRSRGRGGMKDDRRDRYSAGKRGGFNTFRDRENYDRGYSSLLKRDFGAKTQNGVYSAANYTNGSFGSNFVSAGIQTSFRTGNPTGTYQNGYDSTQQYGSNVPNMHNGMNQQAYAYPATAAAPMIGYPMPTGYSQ

The target of one assay is HA-AKAP8 (human) (UniProt O43823). Put plainly: co-IP.
Another assay deals with GST-AKAP8 (human) (UniProt O43823). The assay can be described thus: pull-down.
Assay [1] addresses A-kinase-anchoring protein 8 (AKAP8), endogenous (human (endogenous in 293T)) (UniProt O43823). Put plainly: co-IP.

No constants are given. Whether binding was seen depends on the method and setting. In cells and extracts the contact can be indirect. Some results given as binding are weak or reduced against the parent protein; the word gives no strength.

With DDX5-FLAG (from UniProt P17844 1-614), the binding result in the assay with HA-AKAP8 (human) is “binds”.
As for DDX5-His (from UniProt P17844 1-614), the binding result in the assay with GST-AKAP8 (human) is “binds”.
Turning to “ATP-dependent DEAD box RNA helicase DDX5 (endogenous) (from UniProt P17844 1-614)”, the binding result (in the assay with GST-AKAP8 (human); in assay [1]) was “binds” each time.
